The list does not hold the whole screen: its compounds were picked by chemical class. Other doses and runs of a compound may be missing. T/C: endpoint of the treated group in % of that of the vehicle group. Where survival is the endpoint, the PubChem record calls one and a half times the control and up active, and a quarter to a half above the control has no call in these data; cut-offs in other NCI protocols can differ. Schedules are NCI's codes, taken here to give the interval after Q, in days (D) or hours (H), and the number of doses after X. Some T/C values are marked as having no survivor count here; that says nothing about deaths at the dose. Some entries hold several experiments; the values are given in rising order. Additions like (4×) stand for listed records that agree.
Test system: CD2F1 mice, L1210 leukemia ip, survival T/C
Assay: NCI In Vivo Anticancer Drug Screen. Data for tumor model L1210 Leukemia (intraperitoneal) in CD2F1 (CDF1) mice
Conditions: T/C endpoint: mean survival time, higher T/C = longer survival
Experimental: The antitumor activity of compounds was measured in mice bearing transplantable tumors. Survival or tumor size were measured and the results are expressed as the measurement made in the treated group (T) divided by the measurement made in the vehicle treated control group (C). The tumor model used in this assay is L1210 Leukemia (intraperitoneal) in CD2F1 (CDF1) mice

For CN(CCCl)CCCl, the T/C (dose: 0.01 mg/kg/injection, schedule: Q03HX024 (ip), vehicle: water) was 110 % of control [survivor count not shown], the T/C (dose: 0.03 mg/kg/injection, schedule: Q01DX009 (ip), vehicle: water) was 107 % of control [survivor count not shown] and the T/C (dose: 0.03 mg/kg/injection, schedule: Q03HX016 (ip), vehicle: water) was 121 % of control [survivor count not shown]. The T/C (dose: 0.03 mg/kg/injection, schedule: Q03HX024 (ip), vehicle: water) was 121 % of control [survivor count not shown], the T/C (dose: 0.06 mg/kg/injection, schedule: Q01DX009 (ip), vehicle: saline) was 145 % of control [survivor count not shown] and the T/C (dose: 0.06 mg/kg/injection, schedule: Q01DX009 (ip), vehicle: water) was 112 % of control [survivor count not shown]. For the same compound, the T/C (dose: 0.06 mg/kg/injection, schedule: Q03HX008 (ip), vehicle: water) was 121 % of control [survivor count not shown], the T/C (dose: 0.06 mg/kg/injection, schedule: Q03HX016 (ip), vehicle: water) was 126 % of control [survivor count not shown] and the T/C (dose: 0.06 mg/kg/injection, schedule: Q03HX024 (ip), vehicle: water) was 125 % of control [survivor count not shown]. The T/C (dose: 0.1 mg/kg/injection, schedule: Q01DX009 (ip), vehicle: saline) was 151 % of control [survivor count not shown], the T/C (dose: 0.12 mg/kg/injection, schedule: Q01DX009 (ip), vehicle: saline) was 223 % of control [survivor count not shown] and the T/C (dose: 0.13 mg/kg/injection, schedule: Q01DX001 (ip), vehicle: saline) was 114 % of control [survivor count not shown]. For the same compound, the T/C (dose: 0.13 mg/kg/injection, schedule: Q01DX005 (iv), vehicle: water) was 103 % of control [survivor count not shown], the T/C (dose: 0.13 mg/kg/injection, schedule: Q01DX007 (ip), vehicle: saline) was 147 % of control [survivor count not shown] and the T/C (dose: 0.13 mg/kg/injection, schedule: Q01DX009 (ip), vehicle: saline) was 120 [survivor count not shown] and 153 % of control [survivor count not shown]. The T/C (dose: 0.13 mg/kg/injection, schedule: Q01DX009 (ip), vehicle: water) was 122 % of control [survivor count not shown], the T/C (dose: 0.13 mg/kg/injection, schedule: Q01DX009 (sc), vehicle: water) was 100 % of control [survivor count not shown] and the T/C (dose: 0.13 mg/kg/injection, schedule: Q03DX003 (ip), vehicle: saline) was 132 % of control [survivor count not shown]. The T/C (dose: 0.13 mg/kg/injection, schedule: Q03HX008 (ip), vehicle: water) was 138 % of control [survivor count not shown], the T/C (dose: 0.13 mg/kg/injection, schedule: Q03HX016 (ip), vehicle: water) was 126 % of control [survivor count not shown] and the T/C (dose: 0.13 mg/kg/injection, schedule: Q03HX024 (ip), vehicle: water) was 129 % of control [survivor count not shown]. The T/C (dose: 0.13 mg/kg/injection, schedule: Q04DX003 (ip), vehicle: saline) was 127 % of control [survivor count not shown], the T/C (dose: 0.13 mg/kg/injection, schedule: Q04DX003 (ip), vehicle: water) was 121 % of control [survivor count not shown] and the T/C (dose: 0.19 mg/kg/injection, schedule: Q01DX009 (ip), vehicle: saline) was 151 % of control [survivor count not shown]. The T/C (dose: 0.19 mg/kg/injection, schedule: Q04DX003 (ip), vehicle: saline) was 131 % of control [survivor count not shown], the T/C (dose: 0.2 mg/kg/injection, schedule: Q01DX001 (ip), vehicle: none) was 119 % of control [survivor count not shown] and the T/C (dose: 0.2 mg/kg/injection, schedule: Q01DX001 (ip), vehicle: saline) was 119 % of control [survivor count not shown]. The T/C (dose: 0.25 mg/kg/injection, schedule: Q01DX001 (ip), vehicle: saline) was 120 % of control [survivor count not shown], the T/C (dose: 0.25 mg/kg/injection, schedule: Q01DX005 (iv), vehicle: water) was 102 % of control [survivor count not shown] and the T/C (dose: 0.25 mg/kg/injection, schedule: Q01DX007 (ip), vehicle: saline) was 156 % of control [survivor count not shown]. The T/C (dose: 0.25 mg/kg/injection, schedule: Q01DX009 (ip), vehicle: saline) was 135 [survivor count not shown], 150 [survivor count not shown], 276 % of control [survivor count not shown], the T/C (dose: 0.25 mg/kg/injection, schedule: Q01DX009 (ip), vehicle: water) was 119 % of control [survivor count not shown] and the T/C (dose: 0.25 mg/kg/injection, schedule: Q01DX009 (sc), vehicle: water) was 105 % of control [survivor count not shown]. For the same compound, the T/C (dose: 0.25 mg/kg/injection, schedule: Q03DX003 (ip), vehicle: saline) was 120 % of control [survivor count not shown], the T/C (dose: 0.25 mg/kg/injection, schedule: Q03HX008 (ip), vehicle: water) was 125 % of control [survivor count not shown] and the T/C (dose: 0.25 mg/kg/injection, schedule: Q03HX016 (ip), vehicle: water) was 126 % of control [survivor count not shown]. The T/C (dose: 0.25 mg/kg/injection, schedule: Q03HX024 (ip), vehicle: water) was 125 % of control [survivor count not shown], the T/C (dose: 0.25 mg/kg/injection, schedule: Q04DX003 (ip), vehicle: saline, evaluated on day 30) was 127 % of control and the T/C (dose: 0.25 mg/kg/injection, schedule: Q04DX003 (ip), vehicle: saline, evaluation day not shown) was 141 % of control [survivor count not shown]. For the same compound, the T/C (dose: 0.25 mg/kg/injection, schedule: Q04DX003 (ip), vehicle: water) was 124 % of control [survivor count not shown], the T/C (dose: 0.25 mg/kg/injection, schedule: Q08DX002 (ip), vehicle: water) was 121 % of control [survivor count not shown] and the T/C (dose: 0.3 mg/kg/injection, schedule: Q04DX003 (ip), vehicle: saline) was 121 % of control [survivor count not shown]. For the same compound, the T/C (dose: 0.38 mg/kg/injection, schedule: Q01DX001 (ip), vehicle: DMSO) was 115 % of control [survivor count not shown], the T/C (dose: 0.38 mg/kg/injection, schedule: Q01DX001 (ip), vehicle: Klucel (hydroxypropylcellulose) (HPC)) was 124 [survivor count not shown] and 125 % of control [survivor count not shown] and the T/C (dose: 0.38 mg/kg/injection, schedule: Q01DX001 (ip), vehicle: other) was 119 % of control [survivor count not shown]. The T/C (dose: 0.38 mg/kg/injection, schedule: Q01DX001 (ip), vehicle: saline) was 129 [survivor count not shown] (2×) and 131 % of control [survivor count not shown], the T/C (dose: 0.38 mg/kg/injection, schedule: Q01DX009 (ip), vehicle: saline) was 151 % of control [survivor count not shown] and the T/C (dose: 0.38 mg/kg/injection, schedule: Q04DX003 (ip), vehicle: saline) was 132 % of control [survivor count not shown]. For the same compound, the T/C (dose: 0.4 mg/kg/injection, schedule: Q01DX001 (ip), vehicle: none) was 132 % of control [survivor count not shown], the T/C (dose: 0.4 mg/kg/injection, schedule: Q01DX001 (ip), vehicle: saline) was 132 % of control [survivor count not shown] and the T/C (dose: 0.45 mg/kg/injection, schedule: Q04DX003 (ip), vehicle: saline) was 121 % of control [survivor count not shown]. The T/C (dose: 0.5 mg/kg/injection, schedule: Q01DX001 (ip), vehicle: saline) was 112 [survivor count not shown] (2×) and 130 % of control [survivor count not shown], the T/C (dose: 0.5 mg/kg/injection, schedule: Q01DX001 (ip), vehicle: water) was 124 % of control [survivor count not shown] and the T/C (dose: 0.5 mg/kg/injection, schedule: Q01DX001 (iv), vehicle: water) was 107 % of control [survivor count not shown]. For the same compound, the T/C (dose: 0.5 mg/kg/injection, schedule: Q01DX001 (sc), vehicle: water) was 104 % of control [survivor count not shown], the T/C (dose: 0.5 mg/kg/injection, schedule: Q01DX005 (iv), vehicle: water) was 103 % of control [survivor count not shown] and the T/C (dose: 0.5 mg/kg/injection, schedule: Q01DX007 (ip), vehicle: saline) was 162 % of control [survivor count not shown]. For the same compound, the T/C (dose: 0.5 mg/kg/injection, schedule: Q01DX009 (ip), vehicle: saline) was 122 [survivor count not shown], 165 [survivor count not shown], 211 % of control [survivor count not shown], the T/C (dose: 0.5 mg/kg/injection, schedule: Q01DX009 (ip), vehicle: water) was 132 % of control [survivor count not shown] and the T/C (dose: 0.5 mg/kg/injection, schedule: Q01DX009 (oral), vehicle: water) was 102 % of control [survivor count not shown]. For the same compound, the T/C (dose: 0.5 mg/kg/injection, schedule: Q01DX009 (sc), vehicle: water) was 112 % of control [survivor count not shown], the T/C (dose: 0.5 mg/kg/injection, schedule: Q03DX003 (ip), vehicle: saline) was 135 % of control [survivor count not shown] and the T/C (dose: 0.5 mg/kg/injection, schedule: Q03HX008 (ip), vehicle: water) was 120 % of control [survivor count not shown]. The T/C (dose: 0.5 mg/kg/injection, schedule: Q03HX016 (ip), vehicle: water) was 133 % of control [survivor count not shown], the T/C (dose: 0.5 mg/kg/injection, schedule: Q04DX003 (ip), vehicle: saline with Tween-80) was 124 % of control [survivor count not shown] and the T/C (dose: 0.5 mg/kg/injection, schedule: Q04DX003 (ip), vehicle: saline, evaluated on day 30) was 147 % of control. The T/C (dose: 0.5 mg/kg/injection, schedule: Q04DX003 (ip), vehicle: saline, evaluation day not shown) was 145 % of control [survivor count not shown], the T/C (dose: 0.5 mg/kg/injection, schedule: Q04DX003 (ip), vehicle: water) was 128 % of control [survivor count not shown] and the T/C (dose: 0.5 mg/kg/injection, schedule: Q08DX002 (ip), vehicle: water) was 121 % of control [survivor count not shown]. For the same compound, the T/C (dose: 0.67 mg/kg/injection, schedule: Q04DX003 (ip), vehicle: saline) was 120 % of control [survivor count not shown], the T/C (dose: 0.75 mg/kg/injection, schedule: Q01DX001 (ip), vehicle: DMSO) was 132 % of control [survivor count not shown] and the T/C (dose: 0.75 mg/kg/injection, schedule: Q01DX001 (ip), vehicle: Klucel (hydroxypropylcellulose) (HPC)) was 124 [survivor count not shown] and 140 % of control [survivor count not shown]. For the same compound, the T/C (dose: 0.75 mg/kg/injection, schedule: Q01DX001 (ip), vehicle: other) was 128 % of control [survivor count not shown] and the T/C (dose: 0.75 mg/kg/injection, schedule: Q01DX001 (ip), vehicle: saline) was 131 [survivor count not shown], 135 [survivor count not shown], 139 % of control [survivor count not shown].

— PubChem BioAssay AID256 (DTP/NCI, 2004)
